Measured values reported in patent US20090275529A1, “METHOD FOR IMPROVING CARDIOVASCULAR RISK PROFILE OF COX INHIBITORS” (priority 2008, published 2009).
At least one structure is not confirmed: it was looked up by name or label, or the drawing left a doubt.

What was measured:
[1] = tested on: ABCA1 protein in THP-1 cells; experiment: ABCA1 protein by Western blot in THP-1 cells; format: cell-based, human; conditions: 10 and 50 μM
Experimental: ABCA1 Detection: For ABCA1 detection, macrophage cell lysates were electrophoresed for 1.5 hr at 100V (10% polyacrylamide gel), then transferred to a nitrocellulose membrane. The membrane was blocked for 4 hours at 4° C. in blocking solution then incubated overnight at 4° C. in a 1:200 dilution of rabbit anti-ABCA1antibody (Santa Cruz Biotechnology). The following day, the membrane was washed 5 times in TTBS for 5 mins per wash then incubated at room temperature in a 1:5000 dilution of ECL donkey anti-rabbit IgG Horseradish peroxidase-linked species-specific whole antibody. Development proceeded as described above for the 27-OHase antibody.
Media was aspirated and cells were rinsed 3 times with Dulbecco's Phosphate Buffered Saline (PBS) without Ca++ and Mg++. […] THP-1 macrophages were cholesterol-loaded with 50 μg/ml acetylated LDL and incubated an additional 48 h prior to oil red O staining.
Western Blots: Total cell lysate protein samples (10 μg/lane) were boiled for 5 min, loaded onto a 7.5% polyacrylamide gel, electrophoresed for 1.5 hr at 100V then transferred to a nitrocellulose membrane in a semi-dry transblot apparatus for 1 hr at 100V. For ABCA1 detection, the primary antibody was a rabbit anti-human ABCA1 antibody (1:2000 dilution, Santa Cruz Biotechnology). […]

THP-1 macrophages = experiment: Foam cell formation in acetylated LDL-loaded THP-1 macrophages (oil red O); format: cell-based, human
Experimental: THP-1 human monocytes (1×10^6 cells/ml) in 12 well plates were treated with phorbol dibutyrate, 300 nM (Sigma) for 48 hr at 37° C. to facilitate differentiation into macrophages. The differentiated macrophages were washed three times with PBS, then incubated alone or in the presence of 10 μM NS-398 (37° C., 5% CO2, 18 hours). Cells were cholesterol-loaded with acetylated LDL (50 μg/ml) and further incubated in RPMI (37° C., 5% CO2) for 48 hours. Studies were performed in triplicate.
Immediately following incubation, media was aspirated and cells were fixed in the same 12 well plates used for incubation, with 4% paraformaldehyde in water, for 2-4 minutes. Cells were stained with 0.2% Oil-Red-O in methanol for 1-3 min. Cells were observed via light microscope (Axiovert 25-Zeiss) with 100× magnification and then photographed using a Kodak DC 290 Zoom Digital Camera. The number of foam cells formed in each condition were calculated manually and presented as percentage foam cell formation.
Media was aspirated and cells were rinsed 3 times with Dulbecco's Phosphate Buffered Saline (PBS) without Ca++ and Mg++. […]
Following incubation, media was aspirated and cells were fixed with 4% paraformaldehyde in water, for 2-4 min. […] The number of foam cells formed in each condition were calculated manually and presented as percentage foam cell formation.

## Cc1ccc(-c2cc(C(F)(F)F)nn2-c2ccc(S(N)(=O)=O)cc2)cc1 [Celecoxib, celecoxib]
[1]
  effect on ABCA1 protein expression: decreased in a dose dependent manner
THP-1 macrophages
  effect on foam cell formation: increases foam cell formation
